Measurements as given in US20220402980A1, “CHROMOGRANIN A-DERIVED PEPTIDES AND USES THEREOF” (OSPEDALE SAN RAFFAELE S.R.L., priority 2019, published 2022).
For part of these data: Part of at least one peptide drawing is inferred or uncertain, most often the ends. At least one structure is not confirmed: it was looked up by name or label, or the drawing left a doubt. Where a SMILES comes first, the peptide text is derived from it. Bridges are numbered along the chain shown (N, C = ends). Triazole bridges read from a SMILES are 1,4-linked. [ ]: non-standard residue; d: D form. Lys(N3) = [N-]=[N+]=NCCCC[C@H](N)C(=O)O; Pra = C#CC[C@H](N)C(=O)O

Amino acid sequences for entries named in this document (tags omitted). Residues count along the entry.
UniProt P06756, 31-992 limits assumed: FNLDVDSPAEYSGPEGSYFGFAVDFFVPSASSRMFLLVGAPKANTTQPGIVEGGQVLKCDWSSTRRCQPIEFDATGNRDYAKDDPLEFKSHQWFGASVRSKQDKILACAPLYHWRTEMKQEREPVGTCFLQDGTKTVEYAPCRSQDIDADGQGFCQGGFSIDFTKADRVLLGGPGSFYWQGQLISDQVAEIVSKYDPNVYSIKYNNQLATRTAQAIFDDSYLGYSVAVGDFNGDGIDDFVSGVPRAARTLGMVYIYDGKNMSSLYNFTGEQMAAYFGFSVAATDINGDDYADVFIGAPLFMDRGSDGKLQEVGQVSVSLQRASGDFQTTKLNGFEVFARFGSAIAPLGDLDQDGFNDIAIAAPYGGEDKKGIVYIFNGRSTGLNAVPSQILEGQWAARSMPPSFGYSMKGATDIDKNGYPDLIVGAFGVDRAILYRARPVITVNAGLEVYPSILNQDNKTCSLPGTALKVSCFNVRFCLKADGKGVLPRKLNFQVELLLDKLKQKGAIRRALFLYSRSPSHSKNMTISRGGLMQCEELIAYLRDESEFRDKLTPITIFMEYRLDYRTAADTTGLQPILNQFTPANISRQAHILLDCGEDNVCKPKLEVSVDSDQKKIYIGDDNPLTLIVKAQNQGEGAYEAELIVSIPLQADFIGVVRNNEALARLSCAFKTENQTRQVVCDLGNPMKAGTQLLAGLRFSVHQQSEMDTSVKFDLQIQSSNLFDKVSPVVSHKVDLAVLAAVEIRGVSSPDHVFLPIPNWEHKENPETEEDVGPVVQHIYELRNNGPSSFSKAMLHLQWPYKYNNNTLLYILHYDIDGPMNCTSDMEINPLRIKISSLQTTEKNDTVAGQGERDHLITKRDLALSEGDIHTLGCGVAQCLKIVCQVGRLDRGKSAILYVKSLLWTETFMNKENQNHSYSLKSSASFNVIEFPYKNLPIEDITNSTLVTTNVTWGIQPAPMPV
UniProt P06756, 891-1048 partner limits assumed: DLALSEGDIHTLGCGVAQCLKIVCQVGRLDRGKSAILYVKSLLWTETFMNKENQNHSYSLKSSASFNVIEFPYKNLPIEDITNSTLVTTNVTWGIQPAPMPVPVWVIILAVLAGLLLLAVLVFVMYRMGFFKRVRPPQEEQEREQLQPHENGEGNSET
UniProt P06756, 31-889 limits assumed: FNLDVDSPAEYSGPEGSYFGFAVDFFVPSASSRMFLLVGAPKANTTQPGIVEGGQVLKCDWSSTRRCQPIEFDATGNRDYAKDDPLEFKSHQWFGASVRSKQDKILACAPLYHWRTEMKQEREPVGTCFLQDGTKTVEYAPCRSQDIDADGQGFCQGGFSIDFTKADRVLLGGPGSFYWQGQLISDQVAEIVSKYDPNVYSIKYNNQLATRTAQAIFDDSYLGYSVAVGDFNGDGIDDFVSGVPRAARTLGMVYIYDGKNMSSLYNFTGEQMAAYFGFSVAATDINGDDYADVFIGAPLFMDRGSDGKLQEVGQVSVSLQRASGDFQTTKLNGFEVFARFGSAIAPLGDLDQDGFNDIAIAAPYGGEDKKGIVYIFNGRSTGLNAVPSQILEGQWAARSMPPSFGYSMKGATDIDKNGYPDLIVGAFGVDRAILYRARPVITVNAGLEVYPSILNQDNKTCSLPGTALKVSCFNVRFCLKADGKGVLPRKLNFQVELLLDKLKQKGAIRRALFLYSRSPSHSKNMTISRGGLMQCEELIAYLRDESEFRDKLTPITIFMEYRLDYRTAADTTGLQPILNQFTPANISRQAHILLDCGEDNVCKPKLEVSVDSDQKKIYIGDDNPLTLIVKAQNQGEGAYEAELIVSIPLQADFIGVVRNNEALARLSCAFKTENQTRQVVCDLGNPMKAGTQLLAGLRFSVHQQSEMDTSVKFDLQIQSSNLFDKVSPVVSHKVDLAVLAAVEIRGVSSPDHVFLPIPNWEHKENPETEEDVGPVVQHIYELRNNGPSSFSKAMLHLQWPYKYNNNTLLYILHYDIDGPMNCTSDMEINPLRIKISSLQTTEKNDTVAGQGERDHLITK
UniProt P18564, 22-709 limits assumed: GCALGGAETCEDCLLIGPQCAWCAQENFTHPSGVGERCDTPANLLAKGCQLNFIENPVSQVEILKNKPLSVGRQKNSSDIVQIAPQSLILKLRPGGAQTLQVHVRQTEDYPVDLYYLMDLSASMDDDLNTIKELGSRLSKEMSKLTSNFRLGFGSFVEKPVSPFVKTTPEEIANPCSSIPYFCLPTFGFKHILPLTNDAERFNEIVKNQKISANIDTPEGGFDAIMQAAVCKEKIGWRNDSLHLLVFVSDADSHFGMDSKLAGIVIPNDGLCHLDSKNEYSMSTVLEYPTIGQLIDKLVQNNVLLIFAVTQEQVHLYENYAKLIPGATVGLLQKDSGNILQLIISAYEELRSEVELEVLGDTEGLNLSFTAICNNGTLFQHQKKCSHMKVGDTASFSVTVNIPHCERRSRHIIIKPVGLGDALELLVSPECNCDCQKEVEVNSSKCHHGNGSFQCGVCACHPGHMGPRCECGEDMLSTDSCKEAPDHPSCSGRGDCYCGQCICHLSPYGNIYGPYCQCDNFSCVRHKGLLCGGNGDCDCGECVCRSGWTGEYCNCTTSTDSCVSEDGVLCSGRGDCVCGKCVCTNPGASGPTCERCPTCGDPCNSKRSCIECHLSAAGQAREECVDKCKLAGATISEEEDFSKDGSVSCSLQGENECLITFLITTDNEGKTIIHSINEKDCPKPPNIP
UniProt P18564, 22-788: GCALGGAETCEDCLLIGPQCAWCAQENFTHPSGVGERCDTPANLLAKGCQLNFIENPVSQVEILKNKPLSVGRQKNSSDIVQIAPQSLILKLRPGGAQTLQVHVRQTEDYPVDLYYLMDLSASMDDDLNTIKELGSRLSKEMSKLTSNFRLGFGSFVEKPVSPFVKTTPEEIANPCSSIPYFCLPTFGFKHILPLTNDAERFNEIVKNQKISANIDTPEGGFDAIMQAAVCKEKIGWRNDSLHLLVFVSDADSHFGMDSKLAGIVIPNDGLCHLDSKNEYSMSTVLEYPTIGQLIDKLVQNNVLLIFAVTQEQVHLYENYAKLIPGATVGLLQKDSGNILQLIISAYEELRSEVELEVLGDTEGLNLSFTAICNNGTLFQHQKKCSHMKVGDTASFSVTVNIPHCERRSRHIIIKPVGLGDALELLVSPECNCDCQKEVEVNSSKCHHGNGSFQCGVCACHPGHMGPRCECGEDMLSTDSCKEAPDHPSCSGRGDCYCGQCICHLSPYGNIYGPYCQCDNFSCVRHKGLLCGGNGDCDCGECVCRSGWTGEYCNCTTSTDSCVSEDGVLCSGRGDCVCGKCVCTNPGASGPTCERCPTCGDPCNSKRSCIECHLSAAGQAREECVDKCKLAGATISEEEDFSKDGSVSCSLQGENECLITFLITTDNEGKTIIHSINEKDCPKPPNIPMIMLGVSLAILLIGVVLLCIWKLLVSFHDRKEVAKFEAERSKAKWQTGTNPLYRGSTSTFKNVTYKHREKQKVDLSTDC
UniProt P26012, 43-684 limits assumed: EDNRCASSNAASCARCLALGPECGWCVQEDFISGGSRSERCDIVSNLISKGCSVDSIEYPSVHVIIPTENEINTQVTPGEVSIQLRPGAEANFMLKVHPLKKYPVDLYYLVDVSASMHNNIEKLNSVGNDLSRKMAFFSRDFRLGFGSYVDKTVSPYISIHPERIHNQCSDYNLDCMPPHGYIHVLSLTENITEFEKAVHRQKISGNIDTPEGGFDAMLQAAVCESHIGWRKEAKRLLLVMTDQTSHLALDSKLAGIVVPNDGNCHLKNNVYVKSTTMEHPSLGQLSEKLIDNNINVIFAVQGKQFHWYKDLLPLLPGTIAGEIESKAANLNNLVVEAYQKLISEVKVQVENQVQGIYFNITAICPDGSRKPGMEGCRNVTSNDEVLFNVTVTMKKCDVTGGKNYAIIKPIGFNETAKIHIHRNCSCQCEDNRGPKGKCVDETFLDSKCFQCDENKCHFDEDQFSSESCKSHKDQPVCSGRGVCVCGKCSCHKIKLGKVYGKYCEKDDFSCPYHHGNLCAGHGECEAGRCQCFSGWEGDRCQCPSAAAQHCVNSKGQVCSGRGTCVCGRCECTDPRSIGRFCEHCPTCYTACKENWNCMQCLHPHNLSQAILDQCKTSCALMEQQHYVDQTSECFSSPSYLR

Legend:
αvβ6 [1] = target: T1, αvβ6 (Homo sapiens, UniProt P06756+P18564); assay: Competitive integrin binding assay (isoDGR/STV-HRP probe), αvβ6-coated plates; settings: for Ki: Table 3a and text, ± standard error of the mean
T1 construct: recombinant human αvβ6 extracellular domain (R&D Systems); purchased R&D Systems (Minneapolis, Minn.)
Procedure: Peptide binding was measured by a competitive binding assay using as integrin probe a complex made by a N-terminal acetylated isoDGR peptide biotinylated at the E-amino group of the lysine, acetyl-Ciso[…]-bio (SEQ ID No. 29), and a streptavidin-peroxidase conjugate (called isoDGR/STV-HRP)[43].
Each mixture was then added to integrin-coated wells and left to incubate for 2 h at room temperature. After washing with 25 mM Tris-HCl, pH 7.4, containing 150 mM sodium chloride, 1 mM magnesium chloride, 1 mM manganese chloride, each well was filled with a chromogenic solution (o-phenylenediamine dihydrochloride) and left to incubate for 30 min at room temperature. The chromogenic reaction was stopped by adding 1 N sulfuric acid. The absorbance at 490 nm was then measured using a microtiterplate reader. Ki values were calculated by non-linear regression analysis of competitive binding data using the “One site - Fit Ki” equation of the GraphPad Prism Software using the Kd values of the probe indicated above.

[2] = target: T2, αvβ6 on human bladder cancer 5637 cells (Homo sapiens, UniProt P06756+P18564); assay: Effect of peptides on binding of anti-αvβ6 mAb 10D5 to 5637 cells (FACS); format: cell-based; settings: competition with mAb 10D5
T2 construct: cell-surface expressed αvβ6 on human bladder cancer 5637 cells; host or cells: human bladder cancer 5637 cells

[3] = target: T3, αvβ6 on human keratinocytes (HaCat) (Homo sapiens, UniProt P06756+P18564); assay: Effect of peptides on binding of anti-αvβ6 mAb 10D5 to HaCaT cells (FACS); format: cell-based; settings: competition with mAb 10D5
T3 construct: endogenous in cells; host or cells: human skin keratinocytes HaCaT

αvβ8 = αvβ8 (Homo sapiens, UniProt P06756+P26012); assay: Direct binding of peptide-IRDye conjugates to αvβ8-coated microtiter plates; settings: purified integrin, 1 h
Procedure: (§1) Binding of 5a-IRDye and 2a-IRDye to microtiterplates coated with or without αvβ6 or αvβ8 as indicated in each panel. Various amounts of conjugates were added to microtiterplates and incubated for 1 h at room temperature (see Experimental section). After washing, bound fluorescence was measured using an Odyssey CLx (LI-COR) scanner. Representative images of the scanned plate and quantification of the binding are reported. Mean ±SE of triplicates. Effective concentration 50 (EC50, mean±SD) of the indicated number of independent experiments is shown.
(§2) Binding of 5a-IRDye, 2a-IRDye and Cys-IRDye to αvβ6 and αvβ8 was determined by direct binding assays as follows: 96-well clear-bottom black microtiterplates (Corning® cat. 3601) were coated with 4 μg/ml αvβ6 or αvβ8, in Dulbecco's phosphate-buffered saline with Ca2+ and Mg2+(DPBS, 50 ul/well) and left to incubate over-night at 4° C. […] The bound fluorescence was then quantified by scanning the empty plates with an Odyssey CLx near-infrared fluorescence imaging system (LI-COR) using the following settings: scan intensity, 8.5; scan focus offset, 3; scan quality, highest; channel, 800; resolution, 169 pm.

αvβ6 [4] = target: T1, αvβ6; assay: Direct binding of peptide-IRDye conjugates to αvβ6-coated microtiter plates; settings: purified integrin, 1 h
Procedure: as §1, §2

Compound	Ki (αvβ6 [1]) [nM]	binding to cell-surface expressed αvβ6 [2]	binding to cell-surface expressed αvβ6 [3]	increase in αvβ6 binding compared to 4 (αvβ6 [1]; stapled 5 versus linear 4) [fold]	EC50 (αvβ8) [nM]	EC50 (αvβ6 [4]) [nM]
CC[C@H](C)[C@H](NC(=O)[C@H](CO)NC(=O)[C@H](CC(C)C)NC(=O)[C@@H](NC(=O)[C@H](CCCNC(=N)N)NC(=O)[C@H](CCC(=O)O)NC(=O)[C@H](CC(=O)O)NC(=O)CNC(=O)[C@H](CCCNC(=N)N)NC(=O)[C@H](CC(C)C)NC(=O)[C@@H](NC(=O)[C@H](CCC(=O)O)NC(=O)[C@@H](N)Cc1ccccc1)[C@@H](C)O)[C@@H](C)CC)C(=O)N[C@@H](CC(C)C)C(=O)N[C@@H](CCCNC(=N)N)C(N)=O [compound 3] (H-FETLRGDERILSILR-NH2; N-terminus and C-terminus assumed)	277 ± 74	–	–	–	–	–
CC[C@H](C)[C@H](NC(=O)[C@H](CCCNC(=N)N)NC(=O)[C@H](CCC(=O)O)NC(=O)[C@H](CC(=O)O)NC(=O)CNC(=O)[C@H](CCCNC(=N)N)NC(=O)[C@H](CC(C)C)NC(=O)[C@@H](NC(=O)[C@H](CCC(=O)O)NC(=O)[C@@H](N)Cc1ccccc1)[C@@H](C)O)C(=O)N[C@@H](CC(C)C)C(=O)N[C@@H](CO)C(=O)N[C@H](C(=O)N[C@@H](CC(C)C)C(=O)N[C@@H](CCCNC(=N)N)C(=O)N[C@@H](Cc1c[nH]cn1)C(=O)N[C@@H](CCC(N)=O)C(=O)N[C@@H](CC(N)=O)C(=O)N[C@@H](CC(C)C)C(=O)N[C@@H](CC(C)C)C(=O)N[C@@H](CCCCN)C(=O)N[C@@H](CCC(=O)O)C(=O)N[C@@H](CC(C)C)C(=O)N[C@@H](CCC(N)=O)C(=O)N[C@@H](CC(=O)O)C(=O)O)[C@@H](C)CC [peptide 1] (H-FETLRGDERILSILRHQNLLKELQD-OH; N-terminus and C-terminus assumed)	15.5 ± 3.2	bound cell-surface expressed αvβ6	bound cell-surface expressed αvβ6	–	–	–
CC[C@H](C)[C@H](NC(=O)[C@H](CCCNC(=N)N)NC(=O)[C@H](CC(C)C)NC(=O)[C@H](CC(=O)O)NC(=O)CNC(=O)[C@H](CCCNC(=N)N)NC(=O)[C@H](CC(C)C)NC(=O)[C@@H](NC(=O)[C@H](CCC(=O)O)NC(=O)[C@H](Cc1ccccc1)NC(C)=O)[C@@H](C)O)C(=O)N[C@@H](CC(C)C)C(=O)N[C@@H](CO)C(=O)N[C@H](C(=O)N[C@@H](CC(C)C)C(=O)N[C@@H](CCCNC(=N)N)C(=O)N[C@H]1Cc2cn(nn2)CCCC[C@@H](C(=O)N[C@@H](CCCCN)C(=O)N[C@@H](CCC(=O)O)C(=O)N[C@@H](CC(C)C)C(=O)N[C@@H](CCC(N)=O)C(=O)N[C@@H](CC(=O)O)C(N)=O)NC(=O)[C@H](CC(C)C)NC(=O)[C@H](CC(N)=O)NC(=O)[C@H](CCC(N)=O)NC1=O)[C@@H](C)CC [peptide 5, FETLRGDLRILSILRX1QNLX2KELQD] (Ac-FETLRGDLRILSILR[Pra]QNL[Lys(N3)]KELQD-NH2; triazole 16-20)	–	bound cell-surface expressed αvβ6	bound cell-surface expressed αvβ6	2 to 3	–	–
CC[C@H](C)[C@H](NC(=O)[C@H](CCCNC(=N)N)NC(=O)[C@H](CC(C)C)NC(=O)[C@H](CC(=O)O)NC(=O)CNC(=O)[C@H](CCCNC(=N)N)NC(=O)[C@H](CC(C)C)NC(=O)[C@@H](NC(=O)[C@H](CCC(=O)O)NC(=O)[C@H](Cc1ccccc1)NC(=O)[C@@H](N)CSC1CC(=O)N(CCNC(=O)CCCCCN2C(=CC=C3CCCC(C=CC4=[N+](CCCCS(=O)(=O)[O-])c5ccc(S(=O)(=O)O)cc5C4(C)C)=C3Oc3ccc(S(=O)(=O)O)cc3)C(C)(C)c3cc(S(=O)(=O)O)ccc32)C1=O)[C@@H](C)O)C(=O)N[C@@H](CC(C)C)C(=O)N[C@@H](CO)C(=O)N[C@H](C(=O)N[C@@H](CC(C)C)C(=O)N[C@@H](CCCNC(=N)N)C(=O)N[C@H]1Cc2cn(nn2)CCCC[C@@H](C(=O)N[C@@H](CCCCN)C(=O)N[C@@H](CCC(=O)O)C(=O)N[C@@H](CC(C)C)C(=O)N[C@@H](CCC(N)=O)C(=O)N[C@@H](CC(=O)O)C(N)=O)NC(=O)[C@H](CC(C)C)NC(=O)[C@H](CC(N)=O)NC(=O)[C@H](CCC(N)=O)NC1=O)[C@@H](C)CC (stereo partly drawn) [5a-IRDye]	–	–	–	–	2 to 3	2 to 3
